Results: paper doi:10.1101/2020.04.24.059055
No constants are given. Whether binding was seen depends on the method and setting. In cells and extracts the contact can be indirect. Some results given as binding are weak or reduced against the parent protein; the word gives no strength. Blank lines part the entries; values can stand above or below the molecule they belong to.

Protein sequences, listed by entry. Tags and fused reporters are not part of them. Lines headed by an entry give the natural chain unless they say otherwise; changes in a name come on top. Residues count along the entry.
UniProt Q60793: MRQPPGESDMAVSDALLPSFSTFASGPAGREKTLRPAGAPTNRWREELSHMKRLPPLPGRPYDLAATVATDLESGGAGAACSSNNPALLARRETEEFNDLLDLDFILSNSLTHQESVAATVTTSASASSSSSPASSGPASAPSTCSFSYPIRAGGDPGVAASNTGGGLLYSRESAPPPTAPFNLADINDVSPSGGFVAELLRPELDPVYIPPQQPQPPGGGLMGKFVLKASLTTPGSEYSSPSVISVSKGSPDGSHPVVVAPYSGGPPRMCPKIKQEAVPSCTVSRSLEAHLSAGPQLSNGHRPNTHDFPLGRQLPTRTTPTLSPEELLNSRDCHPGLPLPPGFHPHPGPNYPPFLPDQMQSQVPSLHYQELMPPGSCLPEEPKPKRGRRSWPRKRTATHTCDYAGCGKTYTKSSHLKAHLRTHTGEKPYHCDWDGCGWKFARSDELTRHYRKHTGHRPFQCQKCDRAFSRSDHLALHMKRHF
GST-Klf4 401-483 aa: residues 401-483 of Q60793
UniProt O09106: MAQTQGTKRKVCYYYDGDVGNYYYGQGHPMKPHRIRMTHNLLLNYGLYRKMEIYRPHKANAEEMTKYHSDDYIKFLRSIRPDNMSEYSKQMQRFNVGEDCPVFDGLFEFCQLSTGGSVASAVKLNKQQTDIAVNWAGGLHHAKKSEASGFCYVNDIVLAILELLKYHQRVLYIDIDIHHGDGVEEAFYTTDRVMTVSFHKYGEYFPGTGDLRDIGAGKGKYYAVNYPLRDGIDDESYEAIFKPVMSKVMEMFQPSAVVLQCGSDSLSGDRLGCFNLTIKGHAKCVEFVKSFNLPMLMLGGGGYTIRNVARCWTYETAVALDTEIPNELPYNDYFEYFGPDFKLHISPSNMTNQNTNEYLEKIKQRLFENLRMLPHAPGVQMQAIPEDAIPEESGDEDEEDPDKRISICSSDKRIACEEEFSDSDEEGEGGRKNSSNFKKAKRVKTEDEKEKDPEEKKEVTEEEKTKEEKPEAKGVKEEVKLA
UniProt Q9JIF0: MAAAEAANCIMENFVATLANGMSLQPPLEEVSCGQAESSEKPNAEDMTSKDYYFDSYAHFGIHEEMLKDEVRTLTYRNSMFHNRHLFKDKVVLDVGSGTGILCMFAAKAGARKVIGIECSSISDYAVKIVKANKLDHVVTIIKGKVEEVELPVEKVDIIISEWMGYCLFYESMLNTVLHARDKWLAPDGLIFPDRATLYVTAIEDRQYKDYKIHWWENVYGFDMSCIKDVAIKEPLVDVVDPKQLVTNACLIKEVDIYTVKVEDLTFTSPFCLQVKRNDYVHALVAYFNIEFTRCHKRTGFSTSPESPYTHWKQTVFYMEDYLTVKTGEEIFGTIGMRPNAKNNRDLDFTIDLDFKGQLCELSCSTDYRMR
UniProt P70288: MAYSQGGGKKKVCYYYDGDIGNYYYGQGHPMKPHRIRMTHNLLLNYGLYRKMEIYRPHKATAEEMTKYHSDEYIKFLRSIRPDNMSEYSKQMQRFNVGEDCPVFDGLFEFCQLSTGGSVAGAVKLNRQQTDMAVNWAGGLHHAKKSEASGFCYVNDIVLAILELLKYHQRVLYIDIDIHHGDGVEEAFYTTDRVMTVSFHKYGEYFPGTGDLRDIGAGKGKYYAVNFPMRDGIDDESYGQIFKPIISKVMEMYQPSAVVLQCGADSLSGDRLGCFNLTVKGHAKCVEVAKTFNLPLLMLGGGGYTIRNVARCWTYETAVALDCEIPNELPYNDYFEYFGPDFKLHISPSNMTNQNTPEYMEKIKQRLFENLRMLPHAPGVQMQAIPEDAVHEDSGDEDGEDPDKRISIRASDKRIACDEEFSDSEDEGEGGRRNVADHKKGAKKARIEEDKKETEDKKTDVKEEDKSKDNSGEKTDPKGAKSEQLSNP

Tests used:
[1] = biological target: GST-Klf4 401-483 aa (mouse) (UniProt Q60793); assay: pull-down
[2] = biological target: Myc-Klf4 (mouse) (UniProt Q60793); assay: co-IP
[3] = biological target: Klf4 (endogenous, E14 cells) (mouse (endogenous in E14)) (UniProt Q60793); assay: co-IP
[4] = biological target: FLAG-Klf4 (WT), in E14 cells (mouse) (UniProt Q60793); assay: co-IP

Molecule: HDAC1 (from UniProt O09106 1-482) (enzyme)
binding [3]: binds
binding [4]: binds

B1: mSin3a (protein, UniProt Q60520 1-1274)
chain: MKRRLDDQESPVYAAQQRRIPGSTEAFSHQHRVLAPAPPVYEAVSETMQSATGIQYSVAPNYQVSAVPQSSGSHGPAIAAVHSSHHHPTAVQPHGGQVVQSHAHPAPPVAPVQGQQQFQRLKVEDALSYLDQVKLQFGSQPQVYNDFLDIMKEFKSQSIDTPGVISRVSQLFKGHPDLIMGFNTFLPPGYKIEVQTNDMVNVTTPGQVHQIPTHGIQPQPQPPPQHPSQPSSQSAPTPAQPAPQPTAAKVSKPSQLQAHTPASQQTPPLPPYASPRSPPVQPHTPVTISLGTAPSLQNNQPVEFNHAINYVNKIKNRFQGQPDIYKAFLEILHTYQKEQRNAKEAGGNYTPALTEQEVYAQVARLFKNQEDLLSEFGQFLPDANSSVLLSKTTAEKVDSVRNDHGGTVKKPQLNNKPQRPSQNGCQIRRHSGTGATPPVKKKPKLMSLKESSMADASKHGVGTESLFFDKVRKALRSAEAYENFLRCLVIFNQEVISRAELVQLVSPFLGKFPELFNWFKNFLGYKESVHLESFPKERATEGIAMEIDYASCKRLGSSYRALPKSYQQPKCTGRTPLCKEVLNDTWVSFPSWSEDSTFVSSKKTQYEEHIYRCEDERFELDVVLETNLATIRVLEAIQKKLSRLSAEEQAKFRLDNTLGGTSEVIHRKALQRIYADKAADIIDGLRKNPSIAVPIVLKRLKMKEEEWREAQRGFNKVWREQNEKYYLKSLDHQGINFKQNDTKVLRSKSLLNEIESIYDERQEQATEENAGVPVGPHLSLAYEDKQILEDAAALIIHHVKRQTGIQKEDKYKIKQIMHHFIPDLLFAQRGDLSDVEEEEEEEMDVDEATGAPKKHNGVGGSPPKSKLLFSNTAAQKLRGMDEVYNLFYVNNNWYIFMRLHQILCLRLLRICSQAERQIEEENREREWEREVLGIKRDKSDSPAIQLRLKEPMDVDVEDYYPAFLDMVRSLLDGNIDSSQYEDSLREMFTIHAYIAFTMDKLIQSIVRQLQHIVSDEVCVQVTDLYLAENNNGATGGQLNSQTSRSLLESAYQRKAEQLMSDENCFKLMFIQSQGQVQLTVELLDTEEENSDDPVEAERWSDYVERYMSSDTTSPELREHLAQKPVFLPRNLRRIRKCQRGREQQEKEGKEGNSKKTMENVESLDKLECRFKLNSYKMVYVIKSEDYMYRRTALLRAHQSHERVSKRLHQRFQAWVDKWTKEHVPREMAAETSKWLMGEGLEGLVPCTTTCDTETLHFVSINKYRVKYGTVFKAP
binding [3]: binds
binding [4]: binds

Further lines, results first:

binding [1]: binds
binding [2]: binds
Molecule: FLAG-Prmt1 (from UniProt Q9JIF0 1-371) (enzyme)

binding [3]: binds
binding [4]: binds
Molecule: HDAC2 (from UniProt P70288 1-488) (enzyme)
